Values from PubChem BioAssay AID1259405 (NCATS, 2018)

Assay: 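Knock-downs that lift recombinant protein yield in hamster ovary cells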 (primary screen)
System: Chinese hamster CHO-K1 ovary cells with stable secreted eGFP expression
Knock-down reagent: single siRNA against mouse genes, 0.8 pmol siRNA per well (2 µl of 400 nM stock)
Duration: 3 days
Read-out: 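Percent of the per-plate non-targeting control median for intracellular GFP per well by laser scanning cytometry and for cell viability by ATP luminescence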
Scale: GFP, % of control: higher = more GFP per well, higher productivity
Hit rule: 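Called active when intracellular GFP, relative to negative control, is at or above 120%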
Here is a random part of about 50,000 deposited reagents. About 4,000 of all reagents (8%) were called active. 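Mouse siRNA library applied to hamster cells; one well for each siRNA.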 Not all columns of the deposit are shown.

GFP, % of control, by target gene and reagent
Spata33: SID363542361 56.1 inactive; SID363551852 118 inactive; SID363559457 71.2 inactive
C8b: SID363553579 46.8 inactive; SID363561536 43.9 inactive; SID363565274 72.1 inactive
Ifi44: SID363540244 112 inactive; SID363541996 53.7 inactive; SID363566912 85.7 inactive
Ldlr: SID363568734 61.1 inactive; SID363576126 129 active; SID363578942 57.5 inactive
Mamdc2: SID363562076 62.8 inactive; SID363567214 92.6 inactive; SID363584571 107 inactive
Bivm: SID363546922 49 inactive; SID363549734 111 inactive; SID363587788 102 inactive
Ccdc127: SID363540798 92.6 inactive; SID363543249 83.6 inactive; SID363552742 48.1 inactive
B4galnt2: SID363581901 135 active; SID363589395 87.4 inactive
Tlk2: SID363571268 69.2 inactive; SID363571620 36.4 inactive; SID363571972 81.2 inactive
Bpifc: SID363570031 135 active; SID363576367 86.9 inactive; SID363579535 37.4 inactive
Guk1: SID363570778 58 inactive
Or4a39: SID363554171 142 active; SID363567618 77.4 inactive; SID363584975 42.9 inactive

Sorted by “GFP, % of control” (ascending): some entries from above
Target gene	PubChem SID	GFP, % of control	Call
Ifi44	SID363541996	53.7	inactive
Ldlr	SID363578942	57.5	inactive
Ldlr	SID363568734	61.1	inactive
Ifi44	SID363566912	85.7	inactive
Ldlr	SID363576126	129	active

More results follow.
GFP, % of control, by target gene and reagent
Ttc12: SID363553749 62 inactive; SID363561706 74.6 inactive; SID363565444 58.9 inactive
Phox2a: SID363569280 125 active; SID363583712 96.4 inactive
St18: SID363573876 90.6 inactive; SID363581620 132 active; SID363584084 63.4 inactive
C4b: SID363553570 79.2 inactive; SID363561527 83.3 inactive; SID363565265 76 inactive
Ppp1r16a: SID363575208 75.5 inactive; SID363580840 36.3 inactive; SID363582952 82.6 inactive
Med12: SID363584505 79.3 inactive; SID363589535 105 inactive
Ppme1: SID363570158 105 inactive; SID363576494 117 inactive; SID363579662 79 inactive
Trem4: SID363542815 75.2 inactive; SID363546332 199 active; SID363548088 68.8 inactive
Vps54: SID363545929 71.6 inactive; SID363549442 88.3 inactive; SID363563248 78 inactive
